From article PMC8471540 come the findings set out here.

These are yes or no findings as the source states them, for the method shown. For some assays here: In cells and extracts the contact can be indirect. Some entries that bind do so weakly or less than the wild type.

Test [1] deals with mixed lineage kinase domain-like pseudokinase (mouse (endogenous in MOVAS)) (UniProt Q9D2Y4). Description: Western blot of digitonin lysates for oligomers; MOVAS cells transfected with scrambled or Camk2d siRNAs, treated with 30 ng/mL TNFα plus 60 µM zVAD for 6 h; lysed in 1% digitonin; SDS-PAGE and blot with anti-MLKL or anti-phospho-MLKL. In general terms: Immunoblotting shows a protein as a band on a membrane.

Test [2] deals with receptor interacting protein kinase 3 (mouse (endogenous in MOVAS)), Q9QZL0. The test can be described thus: co-IP; MOVAS cells treated with 30 ng/mL TNFα plus 60 µM zVAD for 6 h; lysed in Pierce IP Lysis Buffer; anti-RIPK3, anti-pan-CaMKII or rabbit IgG on Protein A magnetic beads, incubated with lysate overnight at 4 °C, washed with TBST; immunoblot. The conditions noted are these: remark: other sources report otherwise.

B1: mixed lineage kinase domain-like pseudokinase (protein, UniProt Q9D2Y4 1-472)
chain: MDKLGQIIKLGQLIYEQCEKMKYCRKQCQRLGNRVHGLLQPLQRLQAQGKKNLPDDITAALGRFDEVLKEANQQIEKFSKKSHIWKFVSVGNDKILFHEVNEKLRDVWEELLLLLQVYHWNTVSDVSQPASWQQEDRQDAEEDGNENMKVILMQLQISVEEINKTLKQCSLKPTQEIPQDLQIKEIPKEHLGPPWTKLKTSKMSTIYRGEYHRSPVTIKVFNNPQAESVGIVRFTFNDEIKTMKKFDSPNILRIFGICIDQTVKPPEFSIVMEYCELGTLRELLDREKDLTMSVRSLLVLRAARGLYRLHHSETLHRNISSSSFLVAGGYQVKLAGFELSKTQNSISRTAKSTKAERSSSTIYVSPERLKNPFCLYDIKAEIYSFGIVLWEIATGKIPFEGCDSKKIRELVAEDKKQEPVGQDCPELLREIINECRAHEPSQRPSVDGRSLSGRERILERLSAVEESTDKKV
Take B1: the binding result in test [1] is “binds”.

B2: receptor interacting protein kinase 1, Q60855 1-656 (protein)
chain: MQPDMSLDNIKMASSDLLEKTDLDSGGFGKVSLCYHRSHGFVILKKVYTGPNRAEYNEVLLEEGKMMHRLRHSRVVKLLGIIIEEGNYSLVMEYMEKGNLMHVLKTQIDVPLSLKGRIIVEAIEGMCYLHDKGVIHKDLKPENILVDRDFHIKIADLGVASFKTWSKLTKEKDNKQKEVSSTTKKNNGGTLYYMAPEHLNDINAKPTEKSDVYSFGIVLWAIFAKKEPYENVICTEQFVICIKSGNRPNVEEILEYCPREIISLMERCWQAIPEDRPTFLGIEEEFRPFYLSHFEEYVEEDVASLKKEYPDQSPVLQRMFSLQHDCVPLPPSRSNSEQPGSLHSSQGLQMGPVEESWFSSSPEYPQDENDRSVQAKLQEEASYHAFGIFAEKQTKPQPRQNEAYNREEERKRRVSHDPFAQQRARENIKSAGARGHSDPSTTSRGIAVQQLSWPATQTVWNNGLYNQHGFGTTGTGVWYPPNLSQMYSTYKTPVPETNIPGSTPTMPYFSGPVADDLIKYTIFNSSGIQIGNHNYMDVGLNSQPPNNTCKEESTSRHQAIFDNTTSLTDEHLNPIRENLGRQWKNCARKLGFTESQIDEIDHDYERDGLKEKVYQMLQKWLMREGTKGATVGKLAQALHQCCRIDLLNHLIRASQS
In the case of B2, the binding result in test [2] is recorded as “binds”.
